Common to all, as to type: physicochemical
Data set [1] in a line: Absorbance measurement of iron chelate color development, first reagent solution pH 8.0 (Example 3 / Comparative Example 1). The following applies: physiological saline as sample; R-1 tricine pH 8.0, R-2 tricine pH 8.0; color former 0.23 mM; 596/694 nm; 37° C. The protocol:
(§1) [Preparation of Reagent Solution]
(§2) (R-1) First Reagent Solution:
A 100 mM tricine buffer solution (pH 8.0) containing 0.5% (w/v) polyvinylpyrrolidone (K-90) (produced by Wako Pure Chemical Industries, Ltd.) was used as the first reagent solution.
(§3) (R-2) Second Reagent Solution:
A 100 mM tricine buffer solution (pH 8.0) containing 1 mM 4S-SPF synthesized in Example 1 or 1 mM 2S-4CPF synthesized in Example 2 was used as the second reagent solution.
Aqueous ferrous ammonium sulfate solution (containing 200 μg/dL iron) was prepared and used as a sample.
(§4) [Measurement of Absorbance]
For the above-described sample, the measurement of absorbance was carried out using the reagent solution described above, and using JEOL BM6050 automatic analyzer (manufactured by JEOL Co., Ltd.) by the following measurement conditions. In addition, when the measurement of reagent blank, measurement was carried out in the same manner using physiological saline instead of the sample.
Analysis method/Reaction time: [EPA] [10]
Measurement point: [44], [47]-[95], [98].
Wavelength (secondary/dominant): [694] [596]
Sample volume: 8 μL (2 times dilution at measurement)
(§5) Measurement temperature: 37° C.
It should be noted that the concentration of 4S-SPF or 2S-4CPF at the time of measurement was 0.23 mM.
A 100 mM tricine buffer solution (pH 8.0) containing 0.5% (w/v) polyvinylpyrrolidone (K-90) was used as the first reagent solution.
A 100 mM tricine buffer solution (pH 8.0) containing 1 mM CPF was used as the second reagent solution. The CPF was synthesized according to the method described in the Mitsuru Hoshino et al., Yakugaku Zassi, 2011, vol. 131, No. 7, p. 1095-1101 (Non-Patent Literature 1), and used.
Aqueous ferrous ammonium sulfate solution (containing 200 μg/dL iron) prepared and used as a sample.
For the above-described sample, the measurement of absorbance was carried out using the reagent solution described above and using JEOL BM6050 automatic analyzer (manufactured by JEOL Co., Ltd.) by the same measurement conditions as performed in Example 3. […]

The nature of data set [2]: Absorbance measurement of iron chelate color development, first reagent solution pH 3.2 (Example 4 / Comparative Example 2). As to conditions: saline as sample; R-1 glycine pH 3.2, R-2 tricine pH 9.0; color former 0.23 mM; 37° C. As for the experimental part: as §1, §2
A 10 mM glycine buffer solution (pH 3.2) containing 0.5% (w/v) polyvinylpyrrolidone (K-90) (produced by Wako Pure Chemical Industries, Ltd.) was used as the first reagent solution.
as §3
A 100 mM tricine buffer solution (pH 9.0) containing 1 mM 4S-SPF which was synthesized in Example 1 or 1 mM 2S-4CPF which was synthesized in Example 2 was used as the second reagent solution.
The sample used was same as used in Example 3.
as §4
For the above-described sample, the measurement of absorbance was carried out using the reagent solution described above and using JEOL BM6050 automatic analyzer (manufactured by JEOL Co., Ltd.) by the same measurement conditions as performed in Example 3.
It should be noted that, the concentration of 4S-SPF or 2S-4CPF at the time of measurement was 0.23 mM.
A 10 mM glycine buffer solution (pH 3.2) containing 0.5% (w/v) polyvinylpyrrolidone (K-90) was used as the first reagent solution.
A 100 mM tricine buffer solution (pH 9.0) containing 1 mM CPF was used as the second reagent solution. CPF was synthesized according to the method described in the Mitsuru Hoshino et al., Yakugaku Zassi, 2011, vol. 131, No. 7, p. 1095-1101 (Non-Patent Literature 1), and used.
The sample used was the same as used in Example 4.
For the above-described sample, the measurement of absorbance was carried out using the reagent solution described above and using JEOL BM6050 automatic analyzer (manufactured by JEOL Co., Ltd.) by the same measurement conditions as performed in Example 4.
It should be noted that, the concentration of the CPF at the time of measurement was 0.23

Data set [3] in a line: Absorption curve at 500 nm to 700 nm (Example 5 / Comparative Example 3). As to conditions: physiological saline as sample; color former 0.24 mM; spectrophotometer; 37° C. The protocol: as §1, §2
The same first reagent solution as used in Example 3 was used.
as §3
The same second reagent solution (containing 4S-SPF or 2S-4CPF) as used in Example 3 was used.
The same sample as used in Example 3 was used.
as §4
For the above-described sample, the measurement of absorbance was carried out using the reagent solution described above and using a Hitachi U-3900H Spectrophotometer (manufactured by Hitachi High-Technologies Co., Ltd.) by the following measurement conditions. In addition, for the measurement of reagent blank, physiological saline was used.
Reaction time: 5 minutes-5 minutes
Measurement wavelength: 500 nm to 700 nm
as §5
It should be noted that the concentration of 4S-SPF or 2S-4CPF at the time of measurement was 0.24 mM.
The same first reagent solution as used in Comparative Example 1 was used.
The same second reagent solution (containing CPF) as used in Comparative Example 1 was used.
The same sample as used in Comparative Example 1 was used.
For the above-described sample, the measurement of absorbance was carried out using the reagent solution described above and using a Hitachi U-3900H Spectrophotometer by the same measurement conditions as carried out in Example 5.
It should be noted that, the concentration of CPF at the time of measurement was 0.24 mM.

As for `O=C(O)c1ccc(-c2c3cc(O)c(=O)cc-3oc3cc(O)c(O)cc23)c(S(=O)(=O)O)c1` [2S-4CPF, 9-(4-carboxy-2-sulfophenyl)-2,3,7-trihydroxy-6-fluorone], the “blank value (absorbance of reagent blank)” value (“blank value” below) in data set [1] and in data set [2] was “suppressed lower” each time. Moreover, the “absorbance of the blank at 590 nm to 600 nm” value (shortened to “absorbance of the blank”) in data set [3] is “suppressed lower”.
For the molecule `O=c1cc2oc3cc(O)c(O)cc3c(-c3ccc(S(=O)(=O)O)cc3S(=O)(=O)O)c-2cc1O` [4S-SPF, 9-(2,4-disulfophenyl)-2,3,7-trihydroxy-6-fluorone], the “blank value” value in data set [1] and in data set [2] was “suppressed lower” in each case. Further, the “absorbance of the blank” value in data set [3] was “suppressed lower”.
Turning to `O=C(O)c1ccccc1-c1c2cc(O)c(=O)cc-2oc2cc(O)c(O)cc12` [CPF, 9-(2-carboxyphenyl)-2,3,7-trihydroxy-6-fluorone, reference compound], the “blank value” value in data set [1] and in data set [2] was “high” throughout. Also, the “absorbance of the blank” value in data set [3] is given as “high”.

(Values after US9448244B2, “Compound, and method for measuring iron concentration by using novel compound as chelate color former” (WAKO PURE CHEMICAL INDUSTRIES, LTD., priority 2012, dated 2016).)
